{"source": "PubChem BioAssay AID504467", "about": "(National Center for Advancing Translational Sciences (NCATS), 2011)", "note": "Hit rate of the full screen: of about 330,000 compounds, about 7,700 (2.3%) were called active. The shares of active, inactive and inconclusive entries below differ from those in the screen. Calls follow the shape of the dose curve; as a rule, active = well fitted inhibition curve with a large enough effect; inconclusive = small, poorly fitted or top-dose-only effect, or effect the other way; inactive = flat fitted curve, though single readings scatter. Potencies of inconclusive entries are doubtful fits and often do not repeat. Potency is read from the fitted curve at half-maximal effect."}
{"assay": "qHTS screen for small molecules that inhibit ELG1-dependent DNA repair in human embryonic kidney (HEK293T) cells expressing luciferase-tagged ELG1; also: nearly all actives have a fitted effect of over 55% in size", "settings": "HEK293T ELG1-luciferase reporter, luminescence, 16 h, DNA damage induced by 5-fluorouridine; series mostly up to 46.1 µM", "how_it_was_run": "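HEK293T cells expressing luciferase-tagged ELG1 (2,000/well) received 5-Fluorouridine plus compound or DMSO for 16 hr at 37 °C. Luciferase was read by ONE-Glo luminescence after 30 min at room temperature.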"}
{"smiles": "O=C(CCc1ccccc1)NCCC1=CCCCC1", "Potency": "inconclusive: 20.6 µM [activator, single point]"}
{"smiles": "O=c1[nH]c(NNC(=S)NCc2ccccc2)nc2c1C1(CCCCC1)Cc1ccccc1-2", "Potency": "inactive"}
{"smiles": "CN(CCc1ccccn1)Cc1ccc(Cl)cc1Cl", "Potency": "inconclusive: 29.1 µM [activator, single point]"}
{"smiles": "Cc1onc(-c2c(F)cccc2Cl)c1C(=O)OCC(=O)NC(c1ccccc1)c1ccccc1", "Potency": "inconclusive: 29.1 µM [inhibitor, single point]"}
{"smiles": "CCOC(=O)c1cc(-c2ccc(F)cc2)n(CCC(=O)NC2CCN(Cc3ccccc3)CC2)c1C", "Potency": "inconclusive: 25.9 µM [inhibitor, single point]"}
{"smiles": "O=C(NC1CCCC1)c1cc2nc(-c3ccccc3)cc(-c3ccccc3)n2n1", "Potency": "inconclusive: 4.61 µM [inhibitor, single point]"}
{"smiles": "Cc1ccc(-c2cc(C(=O)NCc3ccccn3)c3ccccc3n2)cc1", "Potency": "inconclusive: 29.1 µM [inhibitor, single point]"}
{"smiles": "O=S(=O)(Nc1cccc2ncccc12)c1cccs1", "Potency": "active: 4.11 µM"}
{"smiles": "CSc1ccc(Cl)c(C(=O)NCCCn2ccnc2)c1", "Potency": "inactive"}
{"smiles": "C=CCN1CCN(C(=O)CSc2ccccc2)CC1", "Potency": "inconclusive: 18.3 µM [activator, partial curve]"}
{"smiles": "Cc1cc2nnc(SCC(=O)N3CCOCC3)n2c2ccccc12", "Potency": "inconclusive: 29.1 µM [activator, single point]"}
{"smiles": "Cc1ccc(NC(=O)c2ccccc2OCC(=O)c2ccc(F)cc2)cc1", "Potency": "inactive"}
{"smiles": "N#Cc1c(-c2ccccc2)cc(-c2ccccc2)nc1SCCC(=O)O", "Potency": "inconclusive: 20.6 µM [inhibitor, single point]"}
{"smiles": "O=C(OCc1ccc(COC(=O)c2ccc(O)cc2)cc1)c1ccc(O)cc1", "Potency": "inconclusive: 25.9 µM [inhibitor, partial curve, poor fit]"}
{"smiles": "C/C(=N\\NC(=O)c1ccco1)c1cc2ccccc2o1", "Potency": "inconclusive: 23.1 µM [activator, partial curve]"}
{"smiles": "Nc1c(N(CCC2=CCCCC2)C(=O)c2ccco2)c(=O)[nH]c(=O)n1Cc1ccccc1", "Potency": "inconclusive: 25.9 µM [inhibitor, single point]"}
{"smiles": "CN1CCN(/N=C/c2ccc(Cl)c(Cl)c2)CC1", "Potency": "inconclusive: 20.6 µM [activator, partial curve]"}
{"smiles": "Fc1ccc(NCc2cn3ccccc3n2)cc1", "Potency": "inconclusive: 16.4 µM [activator, partial curve]"}
{"smiles": "O=C(O)/C=C/C(=O)N1CCN(c2ccccc2F)CC1", "Potency": "inactive"}
{"smiles": "Cc1ccc(C(=O)NC2CCC(C)CC2)s1", "note": "(centres undefined)", "Potency": "inconclusive: 8.2 µM [activator, partial curve]"}
{"smiles": "CCN1CCN(C(=O)CCc2nnc(CCc3ccc(OC)cc3)o2)[C@@H](C)C1=O", "Potency": "inactive"}
{"smiles": "CCOC(=O)c1c(C)oc2ccc(NS(=O)(=O)c3ccc(C(=O)O)cc3)cc12", "Potency": "inactive"}
{"smiles": "Cc1ccc([N+](=O)[O-])cc1N/C=C1\\CCCCC1=O", "Potency": "inconclusive: 13 µM [activator, single point]"}
{"smiles": "CC(=O)Nc1ccc(CCc2nc3ccccc3[nH]2)cc1", "Potency": "inconclusive: 13 µM [activator, partial curve, poor fit]"}
{"smiles": "CCCNC(=O)c1noc2c1CCc1cc(OC)ccc1-2", "Potency": "inconclusive: 9.2 µM [activator, partial curve]"}
{"smiles": "Cc1cc(=O)oc2cc(OCc3cc4c(cc3Cl)OCO4)ccc12", "Potency": "inconclusive: 4.11 µM [activator, single point]"}
{"smiles": "CCSc1nnc(NC(=O)CSC2=NCCS2)s1", "Potency": "inconclusive: 29.1 µM [activator, single point]"}
{"smiles": "COc1ccc(N(CC(=O)N2CCN(c3ccc(Cl)cc3)CC2)S(=O)(=O)c2c(C)noc2C)cc1", "Potency": "inconclusive: 18.3 µM [inhibitor, single point]"}
{"smiles": "CSc1ccccc1NC(=O)COc1ccc(Cl)cc1C", "Potency": "inconclusive: 14.6 µM [activator, single point]"}
{"smiles": "NC(=O)CSc1nc2cc(S(=O)(=O)N3CCOCC3)ccc2o1", "Potency": "inactive"}
{"smiles": "Brc1c(-c2ccccc2)nc2n1Cc1ccccc1-2", "Potency": "inconclusive: 7.3 µM [activator, partial curve]"}
{"smiles": "COc1ccc(-n2ncc3c(=O)n(Cc4c(F)cccc4Cl)cnc32)cc1", "Potency": "inconclusive: 29.1 µM [activator, single point]"}
{"smiles": "Oc1ccc(Cl)cc1-c1cc(-c2ccccc2)n[nH]1", "Potency": "inactive"}
{"smiles": "CCOc1cc(/C=N\\NC(=O)Cc2ccccc2)ccc1OCC(=O)Nc1ccc(C)c(C)c1", "Potency": "inconclusive: 3.66 µM [inhibitor, partial curve, poor fit]"}
{"smiles": "COc1cc(C(=O)OCCCN=C2NS(=O)(=O)c3ccccc32)cc(OC)c1OC", "Potency": "inconclusive: 11.6 µM [inhibitor, partial curve]"}
{"smiles": "CC(c1ccccc1)C(CC(=O)O)C(=O)Nc1ccc(Cl)c(Cl)c1", "note": "(centres undefined)", "Potency": "inactive"}
{"smiles": "COC(=O)CCCCCN1C(=O)/C(=C\\c2ccncc2)SC1=S", "Potency": "inactive"}
{"smiles": "CCOC(=O)N1CCN(C(=O)C2CCN(S(=O)(=O)c3c(C)cc(C)cc3C)CC2)CC1", "Potency": "inconclusive: 32.6 µM [inhibitor, single point]"}
{"smiles": "CCC(=O)N1CCc2cc(Br)cc(S(=O)(=O)N3CCCC(C(=O)O)C3)c21", "note": "(centres undefined)", "Potency": "inconclusive: 18.3 µM [activator, partial curve, poor fit]"}
{"smiles": "O=c1[nH]c(SCc2nc3ccccc3c(=O)n2-c2ccccc2C(F)(F)F)nc2ccccc12", "Potency": "active: 18.4 µM"}
{"smiles": "O=C(Nc1ccc2ccccc2c1)Nc1ccc2snnc2c1", "Potency": "inconclusive: 29.1 µM [inhibitor, single point]"}
{"smiles": "CCC1Nc2ncnc(N3CCCCC3)c2N(Cc2ccc(OC)cc2)C1=O", "note": "(centres undefined)", "Potency": "inconclusive: 29.1 µM [activator, partial curve, poor fit]"}
{"smiles": "COc1c(N2CCN(C(=S)Nc3ccccc3F)C(C)C2)c(F)cc2c(=O)c(C(=O)O)cn(C3CC3)c12", "note": "(centres undefined)", "Potency": "inconclusive: 18.3 µM [inhibitor, partial curve]"}
{"smiles": "Cc1nnc(NC(=O)c2ccccc2Br)s1", "Potency": "inconclusive: 16.4 µM [activator, single point]"}
